These are yes or no findings as the source states them, for the method shown. Some entries that bind do so weakly or less than the wild type.
Legend:
[1] = target: cynomolgus macaque CD40 on PBMC (cynomolgus macaque) (UniProt G7PG38); experiment: flow cytometry on cynomolgus macaque PBMC (CD20+ B cells)
[2] = target: cynomolgus macaque CD40 on PBMC (cynomolgus macaque) (UniProt G7PG38); experiment: flow cytometry on cynomolgus macaque PBMC, CD20+ B cells, detection anti-human IgG Fc-PE

Protein sequences, listed by entry. Tags and fused reporters are not part of them. Lines headed by an entry give the natural chain unless they say otherwise; changes in a name come on top. Chains listed by the source or under a name are the forms on record and can include a tag or linker.
cynomolgus macaque CD40 on PBMC (G7PG38, form named): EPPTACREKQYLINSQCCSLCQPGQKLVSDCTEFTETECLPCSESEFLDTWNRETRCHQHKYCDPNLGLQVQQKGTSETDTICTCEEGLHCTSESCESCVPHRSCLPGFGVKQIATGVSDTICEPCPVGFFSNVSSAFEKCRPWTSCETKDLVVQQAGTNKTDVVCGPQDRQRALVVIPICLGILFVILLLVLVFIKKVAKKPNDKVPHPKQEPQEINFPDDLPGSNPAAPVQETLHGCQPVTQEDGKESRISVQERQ

Row | Binder | binding [1] | binding [2]
1 | anti-CD40 human monoclonal antibody 3C3 (antibody, human IgG2, kappa, V domains shown) VH: QVQLVESGGGVVQPGRSLRLSCAGSGFIFSRYGMYWVRQAPGKGLEWVAVIWYDGSYKYYADSVKGRFTISRDNSKNTLYLQMNSLRAEDTAVYYCARESPWYYFDYWGQGTLVTVSS VL: DIQMTQSPSSLSASVGDRVTITCRASQGISNYLAWYQQKPGKVPKLLIYAASTLQSGVPSRFSGSGSGTDFTLTISSLQPEDVATYYCQKYKSAPFTFGPGTKVDIKR | binds | binds
2 | anti-CD40 human monoclonal antibody 3B6 (antibody, human IgG2, V domains shown) VH: EVQLLESGGGLVQPGGSLRLSCAASGFTFSSYAMSWVRQAPGKGLEWVSGITGTGGSTYYADSVKGRFTISRDNSKNTLYVQMNSLRAEDTAVYYCAKRAGGSFYYYYGMDVWGQGTTVTVSS VL: DIVMTQSPLSLPVTPGEPASISCRSSQSLLHSTGYNYLDWYLQKPGQSPQLLIYLGSNRASGVPDRFNGSGSGTDFTLKISRVEAEDFGVYYCMQALQTPWTFGHGTKVEIK | binds | binds
3 | anti-CD40 human monoclonal antibody 6H6 (antibody, human IgG2, V domains shown) VH: QVQLVESGGGVVQPGRSLRFSCAASGFTLSSYGMHWVRQAPGKGLEWVAVIWDDGSNKYYADSVKGRFTISRDNSKNTLYLQMNSLRAEDTAVYYCARAGGSGRYYNYFDYWGQGTLVTVSS VL: EIVMTQSPATLSVSPGERATLSCRASQSVRSNLAWYQQKPGQAPRLLIYGASTRATGIPARFSGSGSGTDFTLTISSLQSEDFAVYYCQQHNNWLTFGGGTKVEIK | binds | binds

Reference: US20250115663A1
